PubChem BioAssay AID504467 (National Center for Advancing Translational Sciences (NCATS), 2011)
The whole screen tested about 330,000 compounds, of which about 7,700 (2.3%) were called active. The inconclusive results got no clear call from the source; some entries with a clear call stand among them for comparison. Calls follow the shape of the dose curve; as a rule, active = well fitted inhibition curve with a large enough effect; inconclusive = small, poorly fitted or top-dose-only effect, or effect the other way; inactive = flat fitted curve, though single readings scatter. Potencies beside an inconclusive call are fits to weak or partial responses and may not hold up.

assay: qHTS screen for small molecules that inhibit ELG1-dependent DNA repair in human embryonic kidney (HEK293T) cells expressing luciferase-tagged ELG1; conditions: HEK293T ELG1-luciferase reporter, luminescence, 16 h, DNA damage induced by 5-fluorouridine; series mostly up to 46.1 µM; also: nearly all actives have a fitted effect of over 55% in size
Summary of the method: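 Step one: seed 2,000 cells per well. Step two: pin-transfer compound or DMSO alongside 5-fluorouridine. Step three: incubate 16 hr, 37 °C, 5% CO2. Step four: add ONE-Glo, wait 30 min, read luminescence.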
Potency is read from the fitted curve at half-maximal effect.

Row | SMILES | Potency
1 | O=C(Nc1ccc2c(c1)OCCO2)c1cc2sccc2n1Cc1ccc(F)cc1 | inconclusive: 4.11 µM [activator, single point]
2 | CC(OC(=O)c1ccc([N+](=O)[O-])cc1)C(=O)NCC1CCCCC1 (stereo not given) | inactive
3 | COc1c(C(=O)Nc2nnc(C3CC3)s2)csc1Cl | inconclusive: 16.4 µM [activator, partial curve]
4 | CCc1cccc2c(C(=O)CN3C(=O)NC(C)(c4cccc5ccccc45)C3=O)c[nH]c12 (stereo not given) | inactive
5 | CC1CCCC(NC(=O)COC(=O)c2cc(S(=O)(=O)N3CCOCC3)ccc2F)C1C (stereo not given) | inactive
6 | O=C(CSc1nc2ccccc2c(=O)n1CCCO)N1CCc2ccccc21 | inconclusive: 18.4 µM [inhibitor, partial curve]
7 | CSc1nc(N)nc2c1ncn2CC(=O)NCCCc1ccccc1 | inconclusive: 5.8 µM [inhibitor, full curve, poor fit]
8 | Cc1c(C)c2ccc(OC3CCCCC3=O)cc2oc1=O (stereo not given) | inconclusive: 14.6 µM [activator, partial curve]
9 | COc1cc(C(=O)NNC(=S)NC(=O)c2ccc(F)cc2)cc(OC)c1OC | inconclusive: 5.8 µM [inhibitor, full curve]
10 | O=C(NCCc1ccccc1C(F)(F)F)C1CCC(=O)N(C2CC2)C1 (stereo not given) | inactive
11 | Nc1nc(COc2ccc(Cl)cc2)cs1 | inconclusive: 20.6 µM [activator, partial curve]
12 | O=c1c(Cc2c(F)cccc2Cl)c(O)ccn1CCc1c[nH]c2ccccc12 | inactive
13 | Cc1cc(/C=N/NC(=O)c2cccnc2)c(C)n1CC(C)C | inconclusive: 18.3 µM [activator, partial curve]
14 | Cc1ccc(Nc2nc(N/N=C\c3ccc4c(c3)OCO4)nc(N3CCOCC3)n2)cc1 | inconclusive: 29.1 µM [inhibitor, single point]
15 | O=C(Nc1nc(-c2ccco2)c(-c2ccco2)s1)C1CC(=O)N(c2ccc3c(c2)OCCO3)C1 (stereo not given) | inconclusive: 25.1 µM [inhibitor, single point]
16 | COCCN(C(=O)c1cc(-c2ccco2)nc2ccccc12)c1c(N)n(Cc2ccccc2)c(=O)[nH]c1=O | inactive
17 | Cc1cc(C)c(C)c(S(=O)(=O)N2CCN(C(=O)c3cc(=O)[nH]c4ccccc34)CC2)c1C | inconclusive: 4.61 µM [inhibitor, partial curve]
18 | Cc1ccc(NCc2nnc(SCC(=O)Nc3ncc(C)s3)n2CC2CCCO2)c(C)c1 (stereo not given) | inconclusive: 13 µM [inhibitor, partial curve]
19 | Cc1ccccc1C(=O)N1CCCC(N2CCN(Cc3ccc4c(c3)OCO4)CC2)C1 (stereo not given) | inconclusive: 6.51 µM [inhibitor, partial curve, poor fit]
20 | Cc1c(NC(=O)C(Sc2ccccc2)c2ccccc2)cccc1[N+](=O)[O-] (stereo not given) | inconclusive: 32.6 µM [inhibitor, partial curve, poor fit]
21 | CCSc1nnc2ccc(-c3cccs3)nn12 | inconclusive: 29.1 µM [activator, single point]
22 | CCOc1cc(NC(=O)C2CC2)c(OCC)cc1NC(=O)c1cccc(F)c1 | inactive
23 | O=C(COc1ccc(-c2ccccc2)cc1)N/N=C/c1cccnc1 | inactive

An excerpt of these results, with tabs:
Row	SMILES	Potency
13	Cc1cc(/C=N/NC(=O)c2cccnc2)c(C)n1CC(C)C	inconclusive: 18.3 µM [activator, partial curve]
14	Cc1ccc(Nc2nc(N/N=C\c3ccc4c(c3)OCO4)nc(N3CCOCC3)n2)cc1	inconclusive: 29.1 µM [inhibitor, single point]
15	O=C(Nc1nc(-c2ccco2)c(-c2ccco2)s1)C1CC(=O)N(c2ccc3c(c2)OCCO3)C1 (stereo not given)	inconclusive: 25.1 µM [inhibitor, single point]
16	COCCN(C(=O)c1cc(-c2ccco2)nc2ccccc12)c1c(N)n(Cc2ccccc2)c(=O)[nH]c1=O	inactive

Later entries.

Row | SMILES | Potency
24 | N#Cc1ccc(/C=C(\C(=O)C(=O)O)c2ccc3ccccc3n2)cc1 | inconclusive: 4.11 µM [activator, full curve]
25 | CC(NC(=O)COC(=O)CCc1ccccc1)c1ccccc1 (stereo not given) | inconclusive: 14.6 µM [activator, single point]
26 | Cc1ccccc1Nc1nc(N)nc(COC(=O)c2ccco2)n1 | inconclusive: 18.3 µM [activator, partial curve]
27 | CN(C)c1ccnc2sc3c(SCc4ccc(Cl)cc4)ncnc3c12 | inactive
28 | Cc1nnc(SCC(=O)Nc2sc3c(c2C(=O)c2ccccc2)CCCC3)s1 | inconclusive: 29.1 µM [inhibitor, partial curve, poor fit]
29 | N#Cc1ccc(C(=O)Nc2cccc3ccccc23)c(F)c1 | inactive
30 | CCN1C(=O)/C(=C/C=C2/CCCN2C)OC1=S | inconclusive: 20.6 µM [activator, partial curve]
31 | Cc1nc2sc3c(c2c(=O)n1/N=C/c1ccco1)CCCC3 | inactive
32 | Clc1ccsc1-c1ccc2ccccc2n1 | inconclusive: 20.6 µM [activator, partial curve]
33 | O=C(Nc1ccc2nc(N3CCOCC3)sc2c1)c1ccccc1 | inactive
34 | Cc1[nH]c2ccccc2c1C(c1ccncc1)N1CCN(c2ccccc2F)CC1 (stereo not given) | inconclusive: 25.9 µM [inhibitor, single point]
35 | CC(=O)c1ccc(-c2ccc(C(=O)N3CCN(c4ccc(F)cc4)CC3)o2)cc1 | inconclusive: 29.1 µM [inhibitor, single point]
36 | CCN1CCN(c2ccc(NC(=O)COc3ccc(Cl)cc3C)cc2)CC1 | inconclusive: 20.6 µM [inhibitor, single point]
37 | COc1ccc(CN2C(=O)Cc3c2nc(N)c2c(N)nc(N4CCOCC4)c(C#N)c32)cc1 | inconclusive: 29.1 µM [inhibitor, partial curve, poor fit]
38 | COc1ccc(CCNc2ccncn2)cc1OC | inactive
39 | COc1ccc(NC(=O)CCCn2c(=O)c3sccc3n(Cc3ccccc3C)c2=O)cc1 | inconclusive: 29.1 µM [inhibitor, single point]
40 | C[C@H](CO)N1C[C@H](C)[C@@H](CN(C)Cc2ccc(Cl)c(Cl)c2)Oc2c(NC(=O)Cc3ccccc3)cccc2C1=O | inactive
41 | CCOC(=O)c1sc2nc(C)nc(Nc3ccc(OC)cc3)c2c1C | inactive
42 | CN(C)S(=O)(=O)c1cc(NC(=O)CN2CCOCC2)ccc1Cl | inactive
43 | O=C(Nc1cc(Cl)ccc1N1CCOCC1)c1ccc(Br)o1 | inconclusive: 2.91 µM [activator, full curve]
44 | O=C(CN1CCN(S(=O)(=O)c2ccc(Cl)c(Cl)c2)CC1)N1CCCC1 | inactive
45 | Cc1ccc2nc(-c3ccc(Br)cc3)cn2c1 | inconclusive: 0.103 µM [activator, full curve]
